Results taken from patent US7900639B2, “Reconstituted tobaccos containing additive materials” (R. J. Reynolds Tobacco Company, priority 2003, dated 2011).

Columns and labels:
[1] = Transfer rate of tocopherol from tobacco into mainstream smoke
[2] = Example 8; cased blend with about 2% tocopherol compound

## CC(=O)Oc1c(C)c(C)c2c(c1C)CCC(C)(CCCC(C)CCCC(C)CCCC(C)C)O2 (stereo not drawn) [d-, l-alpha tocopherol acetate]
[1]; Example 9, d-, l-alpha tocopherol acetate added about 0.5%
  transfer of d-, l-alpha tocopherol into mainstream smoke: about 1.6%

## Cc1c(C)c2c(c(C)c1O)CC[C@@](C)(CCC[C@H](C)CCC[C@H](C)CCCC(C)C)O2 [d-alpha tocopherol]
[1]; Example 9, no added tocopherol, only endogenous tocopherol compound
  transfer of d-alpha tocopherol into mainstream smoke: about 17.4%

## Cc1c(C)c2c(c(C)c1OC(=O)CCC(=O)O)CCC(C)(CCCC(C)CCCC(C)CCCC(C)C)O2 (stereo not drawn) [d-, l-alpha tocopherol succinate]
[1]; Example 9, d-, l-alpha tocopherol succinate added about 4%
  transfer of d-, l-alpha tocopherol into mainstream smoke: about 11.6%

## Cc1c(C)c2c(c(C)c1O)CCC(C)(CCCC(C)CCCC(C)CCCC(C)C)O2 (stereo not drawn) [d-, l-alpha tocopherol]
[1]; Example 9, d-, l-alpha tocopherol added about 1% to blend by injection
  transfer of d-, l-alpha tocopherol into mainstream smoke: about 10.3%
[1]; Example 11, neat additive about 1% of blend, FTC smoking conditions
  transfer of d-, l-alpha tocopherol into mainstream smoke: about 7%
[2]
  harshness, hot sensation, bitter aftertaste and overall aftertaste relative to cigarettes with lesser levels: reduced
